Data on one substance can be found in article PMC10478313.

By UniProt entry, the sequences of proteins in these tests, tags left out.
UniProt Q15436: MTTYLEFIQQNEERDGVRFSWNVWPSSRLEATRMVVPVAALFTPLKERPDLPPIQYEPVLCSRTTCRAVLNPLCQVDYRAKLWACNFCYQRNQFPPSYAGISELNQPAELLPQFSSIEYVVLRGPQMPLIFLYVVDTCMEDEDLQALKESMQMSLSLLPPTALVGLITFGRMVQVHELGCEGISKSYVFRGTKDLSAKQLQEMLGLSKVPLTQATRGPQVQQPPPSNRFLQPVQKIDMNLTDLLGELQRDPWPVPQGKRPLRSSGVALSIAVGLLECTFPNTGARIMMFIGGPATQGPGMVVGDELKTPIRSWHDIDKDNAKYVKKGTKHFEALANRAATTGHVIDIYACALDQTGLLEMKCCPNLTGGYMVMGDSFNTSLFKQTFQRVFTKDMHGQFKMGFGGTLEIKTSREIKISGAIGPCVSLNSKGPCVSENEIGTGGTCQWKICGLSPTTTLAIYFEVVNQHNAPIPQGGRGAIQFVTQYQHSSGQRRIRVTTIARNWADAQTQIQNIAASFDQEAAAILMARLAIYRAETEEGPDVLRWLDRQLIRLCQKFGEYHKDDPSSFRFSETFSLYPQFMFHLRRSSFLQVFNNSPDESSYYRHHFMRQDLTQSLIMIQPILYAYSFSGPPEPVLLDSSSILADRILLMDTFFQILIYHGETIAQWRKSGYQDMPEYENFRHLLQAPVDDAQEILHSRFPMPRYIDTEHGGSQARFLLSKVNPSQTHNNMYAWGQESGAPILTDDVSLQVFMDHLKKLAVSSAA
UniProt P07355: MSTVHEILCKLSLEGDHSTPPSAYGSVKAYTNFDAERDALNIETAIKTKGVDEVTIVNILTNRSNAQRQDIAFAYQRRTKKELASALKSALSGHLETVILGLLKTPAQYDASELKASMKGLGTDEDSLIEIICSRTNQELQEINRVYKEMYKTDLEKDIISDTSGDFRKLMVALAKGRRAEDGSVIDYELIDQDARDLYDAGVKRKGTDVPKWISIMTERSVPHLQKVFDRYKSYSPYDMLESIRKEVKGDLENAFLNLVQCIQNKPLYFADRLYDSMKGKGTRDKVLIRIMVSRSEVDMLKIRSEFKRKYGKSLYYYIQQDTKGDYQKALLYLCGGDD

No constants are given. Whether binding was seen depends on the method and setting. In cells and extracts the contact can be indirect. Some binding calls cover weakened binding; strength is not graded here.

This assay concerns the target Sec23 homolog A (SEC23A) (human (endogenous in MKN45 and HGC27)) (UniProt Q15436). Description: co-IP; Co-IP with anti-SEC23A and anti-ANXA2 antibody, endogenous proteins in MKN45 cells (Fig. 6C) and HGC27 cells (Fig. S5A).

For the substance “Annexin A2 (ANXA2) (from UniProt P07355 1-339)”, the binding result is given as “binds”.
